Measured values: paper PMC10454406
Like-named read-outs stand apart in the source and are kept apart here. Results are given in words; binding and its absence hold for the method and conditions named. In cells and extracts the contact can be indirect. Some entries that bind do so weakly or less than the wild type.

The chains behind the UniProt entries cited, without tags or fusion partners.
UniProt P0DTC4: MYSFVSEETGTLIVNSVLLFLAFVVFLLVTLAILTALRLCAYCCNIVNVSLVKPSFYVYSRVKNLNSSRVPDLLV
UniProt O00560: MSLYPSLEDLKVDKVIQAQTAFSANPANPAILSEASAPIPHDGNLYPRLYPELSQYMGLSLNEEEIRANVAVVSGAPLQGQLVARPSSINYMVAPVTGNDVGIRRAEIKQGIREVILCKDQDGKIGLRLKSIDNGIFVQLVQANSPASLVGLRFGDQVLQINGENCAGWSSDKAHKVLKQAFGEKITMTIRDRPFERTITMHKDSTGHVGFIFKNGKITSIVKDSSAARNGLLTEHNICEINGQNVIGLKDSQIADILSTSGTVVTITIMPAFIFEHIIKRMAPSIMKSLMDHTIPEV

Key:
[1] = target: GFP-SARS-CoV-2 E protein (wild-type E protein) (SARS-CoV-2) (UniProt P0DTC4); assay: co-IP
[2] = target: GFP-SARS-CoV-2 E protein (wild-type E protein) (SARS-CoV-2) (UniProt P0DTC4); assay: co-IP; remark: listed apart in the source

Which results are given for HA-syntenin (from UniProt O00560 1-298)?
binding [1]: binds; binding [2]: binds
